PubChem BioAssay AID743121 | NCATS | 2013
Shown is a random part of about 26,000 reagents. 167 of them (0.63%) were called active. 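Calls are per gene from RSA p-values that are not deposited; an individual active-marked siRNA can sensitise only weakly.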 Reagents against one gene are numbered here. Further read-outs or replicates are left out here. No sequences are given here.

Assay: 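Knock-downs that sensitise breast cancer cells to camptothecin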 (primary screen)
Cell system: MDA-MB-231 cells, a human breast cancer line
Reagent: single siRNA against human genes, 20 nM siRNA (0.8 pmol per well)
Time to read-out: 120 h (drug added 48 h after transfection, read 72 h later)
Challenge: camptothecin 20 nM (about EC30) for 72 h; vehicle 0.1% DMSO in parallel plates
Read-out: 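CellTiter-Glo ATP signal, scaled to control siRNA as percent viability; sensitisation given as log2 of untreated divided by camptothecin-treated viability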
Direction: log2 vehicle/camptothecin viability: higher = stronger sensitisation to camptothecin; viability with camptothecin: higher = more viable cells
Active means: 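Each gene scored by redundant siRNA activity (RSA) over its individual siRNA ratios; a gene is called active at p < 0.001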

SKP1 (GeneID 6500) #1
- log2 vehicle/camptothecin viability: 0.605
- viability with camptothecin (% of control): 32.4
- Outcome: inactive

SKP1 (GeneID 6500) #2
- log2 vehicle/camptothecin viability: 0.168
- viability with camptothecin (% of control): 93.3
- Outcome: inactive

SKP1 (GeneID 6500) #3
- log2 vehicle/camptothecin viability: -0.333
- viability with camptothecin (% of control): 69.3
- Outcome: inactive

SKP1 (GeneID 6500) #4
- log2 vehicle/camptothecin viability: -0.364
- viability with camptothecin (% of control): 86.8
- Outcome: inactive

FZD3 (GeneID 7976) #1
- log2 vehicle/camptothecin viability: -0.103
- viability with camptothecin (% of control): 81.4
- Outcome: inactive

FZD3 (GeneID 7976) #2
- log2 vehicle/camptothecin viability: 0.384
- viability with camptothecin (% of control): 59.4
- Outcome: inactive

FZD3 (GeneID 7976) #3
- log2 vehicle/camptothecin viability: -0.118
- viability with camptothecin (% of control): 90.1
- Outcome: inactive

FZD3 (GeneID 7976) #4
- log2 vehicle/camptothecin viability: -0.724
- viability with camptothecin (% of control): 10
- Outcome: inactive

POSTN (GeneID 10631) #1
- log2 vehicle/camptothecin viability: -0.189
- viability with camptothecin (% of control): 68.5
- Outcome: inactive

POSTN (GeneID 10631) #2
- log2 vehicle/camptothecin viability: -0.675
- viability with camptothecin (% of control): 102
- Outcome: inactive

POSTN (GeneID 10631) #3
- log2 vehicle/camptothecin viability: 0.448
- viability with camptothecin (% of control): 76.5
- Outcome: inactive

POSTN (GeneID 10631) #4
- log2 vehicle/camptothecin viability: -0.214
- viability with camptothecin (% of control): 92.2
- Outcome: inactive

CDC73 (GeneID 79577) #1
- log2 vehicle/camptothecin viability: 0.128
- viability with camptothecin (% of control): 43.8
- Outcome: inactive

CDC73 (GeneID 79577) #2
- log2 vehicle/camptothecin viability: -0.0409
- viability with camptothecin (% of control): 40.2
- Outcome: inactive

CDC73 (GeneID 79577) #3
- log2 vehicle/camptothecin viability: 0.45
- viability with camptothecin (% of control): 36.9
- Outcome: inactive

CDC73 (GeneID 79577) #4
- log2 vehicle/camptothecin viability: 0.0702
- viability with camptothecin (% of control): 49.6
- Outcome: inactive

Records listed so far whose gene name starts with C or c (4):
CDC73 (GeneID 79577) #1
- log2 vehicle/camptothecin viability: 0.128
- viability with camptothecin (% of control): 43.8
- Outcome: inactive

CDC73 (GeneID 79577) #2
- log2 vehicle/camptothecin viability: -0.0409
- viability with camptothecin (% of control): 40.2
- Outcome: inactive

CDC73 (GeneID 79577) #3
- log2 vehicle/camptothecin viability: 0.45
- viability with camptothecin (% of control): 36.9
- Outcome: inactive

CDC73 (GeneID 79577) #4
- log2 vehicle/camptothecin viability: 0.0702
- viability with camptothecin (% of control): 49.6
- Outcome: inactive

The list goes on.
MX1 (GeneID 4599) #1
- log2 vehicle/camptothecin viability: -0.308
- viability with camptothecin (% of control): 67.8
- Outcome: inactive

MX1 (GeneID 4599) #2
- log2 vehicle/camptothecin viability: -0.106
- viability with camptothecin (% of control): 95
- Outcome: inactive

MX1 (GeneID 4599) #3
- log2 vehicle/camptothecin viability: 0.158
- viability with camptothecin (% of control): 41.3
- Outcome: inactive

MX1 (GeneID 4599) #4
- log2 vehicle/camptothecin viability: 0.0761
- viability with camptothecin (% of control): 79.1
- Outcome: inactive

GAB1 (GeneID 2549) #1
- log2 vehicle/camptothecin viability: -0.603
- viability with camptothecin (% of control): 47.9
- Outcome: inactive

GAB1 (GeneID 2549) #2
- log2 vehicle/camptothecin viability: -0.0149
- viability with camptothecin (% of control): 76.1
- Outcome: inactive

GAB1 (GeneID 2549) #3
- log2 vehicle/camptothecin viability: 0.156
- viability with camptothecin (% of control): 80.9
- Outcome: inactive

SMAD4 (GeneID 4089) #1
- log2 vehicle/camptothecin viability: -0.491
- viability with camptothecin (% of control): 73
- Outcome: inactive

SMAD4 (GeneID 4089) #2
- log2 vehicle/camptothecin viability: 0.146
- viability with camptothecin (% of control): 65.7
- Outcome: inactive

SMAD4 (GeneID 4089) #3
- log2 vehicle/camptothecin viability: -0.306
- viability with camptothecin (% of control): 51.8
- Outcome: inactive

SMAD4 (GeneID 4089) #4
- log2 vehicle/camptothecin viability: -0.401
- viability with camptothecin (% of control): 82.8
- Outcome: inactive
